Changes are numbered by the printed parent chain. The list shows a part of the results, in another mix than the full data. Calls are pooled over several reports, among them a noisy single-well screen. Some of the results follow.
Assays:
Details in all cases: stereoisomer not certain
OR2B6 (Homo sapiens) = target: T1, OR2B6 (Homo sapiens) (UniProt P58173)
T1 sequence (whole entry): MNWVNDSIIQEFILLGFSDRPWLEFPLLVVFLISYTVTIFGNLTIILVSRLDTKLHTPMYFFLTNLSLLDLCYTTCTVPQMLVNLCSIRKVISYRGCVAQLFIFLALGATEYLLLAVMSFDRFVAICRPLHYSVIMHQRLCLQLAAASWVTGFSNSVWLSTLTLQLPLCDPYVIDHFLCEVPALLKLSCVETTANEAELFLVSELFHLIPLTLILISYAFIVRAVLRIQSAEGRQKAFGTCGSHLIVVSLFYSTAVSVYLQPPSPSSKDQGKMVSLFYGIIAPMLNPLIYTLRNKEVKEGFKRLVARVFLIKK
Outline: (§1)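 Each entry records the cell line, G-protein, co-transfected protein and tags used. Methods varied with the source, often transient luciferase assays in mammalian cell lines. A receptor–molecule pair is called responsive (active) if the original authors judged its signal statistically different from baseline and non-responsive (inactive) otherwise.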

Chains of the proteins cited; added tags and fusions are not shown. Chains listed by the source or under a name are the forms on record and can include a tag or linker.
OR2F1, as listed by the source: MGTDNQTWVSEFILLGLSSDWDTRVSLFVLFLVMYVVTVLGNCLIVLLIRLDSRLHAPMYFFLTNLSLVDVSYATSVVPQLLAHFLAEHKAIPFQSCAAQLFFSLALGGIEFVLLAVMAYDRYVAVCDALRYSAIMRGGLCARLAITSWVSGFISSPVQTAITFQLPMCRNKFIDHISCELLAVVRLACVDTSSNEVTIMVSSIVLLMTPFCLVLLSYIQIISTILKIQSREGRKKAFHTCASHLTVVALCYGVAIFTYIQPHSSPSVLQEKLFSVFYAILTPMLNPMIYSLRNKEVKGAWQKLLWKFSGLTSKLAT
OR2C1, as listed by the source: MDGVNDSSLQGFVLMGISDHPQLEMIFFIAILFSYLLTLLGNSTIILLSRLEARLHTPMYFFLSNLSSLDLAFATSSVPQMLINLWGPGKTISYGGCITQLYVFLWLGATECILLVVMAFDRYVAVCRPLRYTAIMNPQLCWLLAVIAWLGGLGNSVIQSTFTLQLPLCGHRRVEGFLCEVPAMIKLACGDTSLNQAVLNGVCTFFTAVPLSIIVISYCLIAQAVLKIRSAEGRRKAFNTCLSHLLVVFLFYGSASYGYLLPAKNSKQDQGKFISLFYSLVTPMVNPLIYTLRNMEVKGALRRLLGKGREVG

OR2B8 = system: T2, OR2B8
T2 sequence (whole entry): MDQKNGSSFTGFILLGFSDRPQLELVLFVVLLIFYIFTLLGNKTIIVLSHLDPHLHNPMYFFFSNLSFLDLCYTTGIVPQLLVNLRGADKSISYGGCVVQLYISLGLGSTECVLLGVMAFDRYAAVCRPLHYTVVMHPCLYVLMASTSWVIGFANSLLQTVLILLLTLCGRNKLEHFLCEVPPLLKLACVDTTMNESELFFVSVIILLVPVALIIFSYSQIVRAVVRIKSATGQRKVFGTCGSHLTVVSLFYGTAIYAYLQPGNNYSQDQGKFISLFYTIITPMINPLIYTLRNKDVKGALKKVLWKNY
Outline: as §1

OR2C1 (Homo sapiens) = target: T3, OR2C1 (Homo sapiens) (UniProt O95371)
T3 sequence (whole entry): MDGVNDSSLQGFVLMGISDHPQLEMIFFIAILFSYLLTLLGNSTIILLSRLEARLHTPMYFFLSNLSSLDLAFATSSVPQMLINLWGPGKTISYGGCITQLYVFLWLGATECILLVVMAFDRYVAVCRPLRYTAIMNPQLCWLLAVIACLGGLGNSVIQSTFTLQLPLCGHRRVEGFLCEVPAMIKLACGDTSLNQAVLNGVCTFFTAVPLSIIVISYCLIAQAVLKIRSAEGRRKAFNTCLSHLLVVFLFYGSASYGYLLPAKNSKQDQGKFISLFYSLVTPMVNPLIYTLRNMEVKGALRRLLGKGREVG
Outline: as §1

OR2C1 [1] = system: T4, OR2C1
T4 sequence (whole entry): T3 sequence (whole entry) with C149W, R229H
Outline: as §1

OR2C1 [2] = system: T5, OR2C1; remark: listed apart in the source
T5 sequence (whole entry): T3 sequence (whole entry) with C149W
Outline: as §1

OR2C1 [3] = system: T6, OR2C1; remark: listed apart in the source
T6 sequence (whole entry): T3 sequence (whole entry) with P58S, C149W
Outline: as §1

OR2C1 [4] = system: T7, OR2C1; remark: listed apart in the source
T7 sequence (whole entry): T3 sequence (whole entry) with G16S, C149W, R229H
Outline: as §1

OR2C1 [5] = system: T8, OR2C1; remark: listed apart in the source
T8 sequence (whole entry): T3 sequence (whole entry) with G16S, C149W
Outline: as §1

OR2C3 = system: T9, OR2C3
T9 sequence (whole entry): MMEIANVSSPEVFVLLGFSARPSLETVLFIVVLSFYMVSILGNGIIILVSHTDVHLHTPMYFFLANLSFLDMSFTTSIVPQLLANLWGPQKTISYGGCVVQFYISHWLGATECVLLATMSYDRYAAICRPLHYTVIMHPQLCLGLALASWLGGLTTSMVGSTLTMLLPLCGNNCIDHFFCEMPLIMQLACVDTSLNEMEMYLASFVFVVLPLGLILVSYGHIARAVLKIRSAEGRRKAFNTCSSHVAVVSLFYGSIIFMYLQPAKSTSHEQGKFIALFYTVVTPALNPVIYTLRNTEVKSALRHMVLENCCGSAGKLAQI
Outline: as §1

OR2D2 (Homo sapiens) = target: T10, OR2D2 (Homo sapiens) (UniProt Q9H210)
T10 sequence (whole entry): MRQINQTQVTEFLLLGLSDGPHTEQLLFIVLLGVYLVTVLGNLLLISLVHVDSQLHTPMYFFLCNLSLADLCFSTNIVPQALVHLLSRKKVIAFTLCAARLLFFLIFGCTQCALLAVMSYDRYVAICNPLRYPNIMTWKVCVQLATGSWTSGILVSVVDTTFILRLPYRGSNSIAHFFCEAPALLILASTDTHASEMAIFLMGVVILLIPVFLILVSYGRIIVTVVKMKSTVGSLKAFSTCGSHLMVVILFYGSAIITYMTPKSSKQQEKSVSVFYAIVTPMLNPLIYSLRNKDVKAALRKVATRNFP
Outline: as §1

OR2D3 = system: T11, OR2D3
T11 sequence (whole entry): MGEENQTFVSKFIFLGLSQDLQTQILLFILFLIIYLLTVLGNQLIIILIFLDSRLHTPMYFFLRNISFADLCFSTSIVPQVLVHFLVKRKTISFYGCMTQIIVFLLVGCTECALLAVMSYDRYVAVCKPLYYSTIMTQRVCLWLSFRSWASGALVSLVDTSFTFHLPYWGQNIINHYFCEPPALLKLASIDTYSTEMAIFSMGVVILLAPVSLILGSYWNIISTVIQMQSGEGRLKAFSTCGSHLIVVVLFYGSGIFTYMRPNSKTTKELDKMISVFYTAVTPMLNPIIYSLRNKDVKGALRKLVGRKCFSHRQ
Outline: as §1

OR2F1 (Homo sapiens) = target: T12, OR2F1 (Homo sapiens) (UniProt Q13607)
T12 sequence (whole entry): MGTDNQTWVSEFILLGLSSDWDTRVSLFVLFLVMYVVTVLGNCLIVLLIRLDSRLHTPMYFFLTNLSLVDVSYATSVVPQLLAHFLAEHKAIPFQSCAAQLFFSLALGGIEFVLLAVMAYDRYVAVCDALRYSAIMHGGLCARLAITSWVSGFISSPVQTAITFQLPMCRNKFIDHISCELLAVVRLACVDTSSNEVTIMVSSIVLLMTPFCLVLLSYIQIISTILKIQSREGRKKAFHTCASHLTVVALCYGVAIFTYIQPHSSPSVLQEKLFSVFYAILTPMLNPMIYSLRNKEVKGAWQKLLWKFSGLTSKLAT
Outline: as §1

OR2F1 [6] = system: OR2F1
Outline: as §1

OR2F1 [7] = system: OR2F1; remark: listed apart in the source
Outline: as §1

OR2F1 [8] = system: OR2F1; remark: listed apart in the source
Outline: as §1

OR2F1 [9] = system: OR2F1; remark: listed apart in the source
Outline: as §1

| SMILES | odorant receptor agonist call (OR2B6 (Homo sapiens)) | odorant receptor agonist call (OR2B8) | odorant receptor agonist call (OR2C1 (Homo sapiens)) | odorant receptor agonist call (OR2C1 [1]) | odorant receptor agonist call (OR2C1 [2]) | odorant receptor agonist call (OR2C1 [3]) | odorant receptor agonist call (OR2C1 [4]) | odorant receptor agonist call (OR2C1 [5]) | odorant receptor agonist call (OR2C3) | odorant receptor agonist call (OR2D2 (Homo sapiens)) | odorant receptor agonist call (OR2D3) | odorant receptor agonist call (OR2F1 (Homo sapiens)) | odorant receptor agonist call (OR2F1 [6]) | odorant receptor agonist call (OR2F1 [7]) | odorant receptor agonist call (OR2F1 [8]) | odorant receptor agonist call (OR2F1 [9]) |
| --- | --- | --- | --- | --- | --- | --- | --- | --- | --- | --- | --- | --- | --- | --- | --- | --- |
| CCCCCCCCCC=O | inactive | inactive | inactive | inactive | inactive | inactive | inactive | inactive | inactive | inactive | inactive | inactive |  |  |  |  |
| COc1cc(C)ccc1O | inactive | inactive |  | inactive | inactive | active | active | inactive | inactive | inactive | inactive | inactive |  |  |  |  |
| CC12CCC(CC1)C(C)(C)O2 | inactive | inactive |  | inactive | inactive | inactive | inactive | inactive | inactive | inactive | inactive | inactive |  |  |  |  |
| CCCC(=O)O | inactive | inactive |  | inactive | inactive | inactive | inactive | inactive | inactive | inactive | inactive | inactive |  |  |  |  |
| CCC=CCCO | inactive | inactive |  | inactive | inactive | inactive | inactive | inactive | active | inactive | inactive | inactive |  |  |  |  |
| CC(C)(O)CCCC1=CCC(C=O)CC1 (stereo not drawn) |  |  | inactive |  |  |  |  |  | inactive | inactive |  |  |  |  |  |  |
| C=CC(C)(O)CCC=C(C)C (stereo not drawn) | inactive | inactive |  | inactive | inactive | inactive | inactive | inactive | inactive | inactive | inactive | inactive |  |  |  |  |
| CCC1(O)C2(C)CCC(C2)C1(C)C (stereo not drawn) | inactive | inactive |  | inactive | inactive | inactive | inactive | inactive | inactive | inactive | inactive | inactive |  |  |  |  |
| CC1=NC(C)SC1C (stereo not drawn) | inactive | inactive |  | inactive | inactive | inactive | inactive | inactive |  |  | inactive | inactive |  |  |  |  |
| CC(=O)OC1CC2CCC1(C)C2(C)C (stereo not drawn) | inactive | inactive |  | inactive | inactive | inactive | inactive | inactive | inactive | inactive | inactive | inactive |  |  |  |  |
| CC(=O)C(C)=O | inactive | inactive |  | inactive | inactive | inactive | inactive | inactive | inactive | inactive | inactive | inactive |  |  |  |  |
| CCCCCCCCC=O |  |  | inactive |  |  |  |  |  |  |  |  |  |  |  |  |  |
| C=C(C)C1CC=C(C)C(=O)C1 (stereo not drawn) |  |  | inactive |  |  |  |  |  |  |  |  |  |  |  |  |  |
| C=CCc1ccc(OC(C)=O)c(OC)c1 | inactive | inactive |  | inactive | inactive | inactive | inactive | inactive | active | active | inactive | active | inactive | inactive | inactive | inactive |
| C=C(C)C1CCC2=CC(=O)CC(C)C2(C)C1 (stereo not drawn) |  |  |  |  |  |  |  |  | active | inactive |  |  |  |  |  |  |
| CC=Cc1ccc(O)c(OC)c1 | inactive | inactive |  | inactive | inactive | active | active | active | active | active | inactive | inactive |  |  |  |  |
| CCCCCCC=O |  |  | inactive |  |  |  |  |  |  |  |  |  |  |  |  |  |
| COc1cc(C=O)ccc1O | inactive | inactive |  | inactive | inactive | inactive | inactive | inactive | inactive | inactive | inactive | inactive |  |  |  |  |
| O=C1CCCCCCCCCCCCCCO1 | inactive | inactive |  | inactive | inactive | inactive | inactive | inactive | inactive | inactive | inactive | inactive |  |  |  |  |
| COC(=O)c1ccccc1 | inactive | active |  | inactive | inactive | inactive | inactive | inactive |  |  | inactive | inactive |  |  |  |  |
| CC1=CCC(C(C)(C)O)CC1 (stereo not drawn) | inactive | inactive |  | inactive | inactive | inactive | inactive | inactive | inactive | inactive | inactive | inactive |  |  |  |  |
| CC(C)CCC(=O)O | inactive | inactive |  | inactive | inactive | active | inactive | inactive | inactive | inactive | inactive | inactive |  |  |  |  |
| C=CCSCC=C | inactive | inactive |  | inactive | inactive | inactive | inactive | inactive | inactive | inactive | inactive | inactive |  |  |  |  |
| CCCCCOC(C)=O | inactive | inactive |  | inactive | inactive | inactive | inactive | inactive | inactive | inactive | inactive | inactive |  |  |  |  |
| CC(C)CC(=O)O | inactive | inactive |  | inactive | inactive | inactive | inactive | inactive | inactive | inactive | inactive | inactive |  |  |  |  |
| CCCCCCCCCCC=O | inactive | inactive |  | inactive | inactive | inactive | inactive | inactive | inactive | inactive | inactive | inactive |  |  |  |  |
| CC(=O)OC(C)(C)C1CC=C(C)CC1 (stereo not drawn) | inactive | inactive |  | inactive | inactive | inactive | inactive | inactive | inactive | inactive | inactive | inactive |  |  |  |  |
| c1cnccn1 | inactive | inactive |  | inactive | inactive | inactive | inactive | inactive | inactive | inactive | inactive | inactive |  |  |  |  |
| CC(=O)OCC=C(C)CCC=C(C)C | inactive | inactive |  | inactive | inactive | inactive | inactive | inactive | active | inactive | inactive | inactive |  |  |  |  |

Reformatted: two of the compounds above
SMILES	odorant receptor agonist call (OR2B6 (Homo sapiens))	odorant receptor agonist call (OR2B8)	odorant receptor agonist call (OR2C1 (Homo sapiens))	odorant receptor agonist call (OR2C1 [1])	odorant receptor agonist call (OR2C1 [2])	odorant receptor agonist call (OR2C1 [3])	odorant receptor agonist call (OR2C1 [4])	odorant receptor agonist call (OR2C1 [5])	odorant receptor agonist call (OR2C3)	odorant receptor agonist call (OR2D2 (Homo sapiens))	odorant receptor agonist call (OR2D3)	odorant receptor agonist call (OR2F1 (Homo sapiens))	odorant receptor agonist call (OR2F1 [6])	odorant receptor agonist call (OR2F1 [7])	odorant receptor agonist call (OR2F1 [8])	odorant receptor agonist call (OR2F1 [9])
COc1cc(C)ccc1O	inactive	inactive		inactive	inactive	active	active	inactive	inactive	inactive	inactive	inactive				
CCCC(=O)O	inactive	inactive		inactive	inactive	inactive	inactive	inactive	inactive	inactive	inactive	inactive				

From the M2OR odorant receptor database
